Measured values reported in patent US6403602B1 (priority 1997, dated 2002).

Tests used:
[1] = tested on: electrically stimulated guinea pig ileum; experiment: tissue or blood; format: cell-based; conditions: Cavia porcellus, read-out: Guinea Pig Ileum IC50 (nM)
[2] = tested on: electrically stimulated mouse vas deferens; experiment: tissue or blood; format: cell-based; conditions: read-out: Mouse Vas Deferens IC50 (nM)

SMILES: CN1CC[C@]23c4c5ccc(O)c4O[C@H]2[C@@H](O)C=C[C@H]3[C@H]1C5 [Morphine, morphine]
- IC50 [1]: 24.8 nM
- IC50 [2]: 2130 nM
